Results: patent US11235066B2, “Micelles and methods” (THE REGENTS OF THE UNIVERSITY OF MICHIGAN, priority 2015, dated 2022)
At least one structure is not confirmed: it was looked up by name or label, or the drawing left a doubt.

Test system: colonic adenomas
Test: Adenoma regression with targeted rapamycin micelle therapy (endoscopy, histology)
Assay type: in vivo, CPC; Apc mice
Conditions: 5 mg/kg daily i.p. for 35 days

Which “adenoma regression on endoscopy” value does the source give for `CO[C@H]1C[C@@H]2CC[C@@H](C)[C@@](O)(O2)C(=O)C(=O)N2CCCC[C@H]2C(=O)O[C@H]([C@H](C)C[C@@H]2CC[C@@H](O)[C@H](OC)C2)CC(=O)[C@H](C)/C=C(\C)[C@@H](O)[C@@H](OC)C(=O)[C@H](C)C[C@H](C)/C=C/C=C/C=C/1C` [free rapamycin, Rapamycin] here?
The value was “complete adenoma regression”.
